Record: PubChem BioAssay AID602196 (INSERM, 2012)

- Test: 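Knock-downs that protect lung cancer cells from cisplatin or sensitise them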
- Cell system: human A549 lung cancer cells
- Knock-down reagent: siRNA pair against human genes
- Timing: 48 h transfection before cisplatin; time from cisplatin to read-out not stated
- Challenge: cisplatin at a dose killing half of control-siRNA cells; exact dose and duration not given
- Read-out: 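Cisplatin cell death as a shift from the 50% death seen with control siRNA; siRNAs toxic or growth-blocking alone scored 0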
- Scale: two-siRNA summed score (-2 to +2): higher = both siRNAs protect from cisplatin killing; -2 means both sensitise; mean protection from cisplatin (shift in death): higher = protection from cisplatin killing
- Active means: 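Each siRNA scores 0 if harmful alone by LDH or WST-1, otherwise +1 if it reduces and -1 if it increases cisplatin killing; a gene is active when both siRNAs agree (sum +2 or -2)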
- Meaning of the calls: active = both siRNAs shift cisplatin killing the same way; inactive = no consistent shift, or siRNA harmful alone
In all, the deposit lists about 23,000 reagents; below is a part drawn at random. Of all reagents, 455 (2%) were called active. 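Active includes both protection and sensitisation; some change values fall well beyond the stated -50 to +50 range.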 Unmarked entries are inactive. Further read-outs or replicates are left out here. No sequences are given here. Not given: the amount of reagent.

LOC388079 gave two-siRNA summed score (-2 to +2) = 1; mean protection from cisplatin (shift in death) (%) = 7.7. TDO2 gave two-siRNA summed score (-2 to +2) = -1; mean protection from cisplatin (shift in death) (%) = -10.3. With knock-down of RRP1 the results were two-siRNA summed score (-2 to +2) = 0; mean protection from cisplatin (shift in death) (%) = 5.9. Silencing of MIF4GD came out at: two-siRNA summed score (-2 to +2) = 1; mean protection from cisplatin (shift in death) (%) = 11.5. After knock-down of TIMM22 the results were two-siRNA summed score (-2 to +2) = 0; mean protection from cisplatin (shift in death) (%) = 3.1. GPRIN3 gave two-siRNA summed score (-2 to +2) = 0; mean protection from cisplatin (shift in death) (%) = -1.8.

ISM1 scored two-siRNA summed score (-2 to +2) = 0; mean protection from cisplatin (shift in death) (%) = 6. Depletion of LOC283202 came out at: two-siRNA summed score (-2 to +2) = 0; mean protection from cisplatin (shift in death) (%) = -0.9. Silencing of LOC400605 resulted in: two-siRNA summed score (-2 to +2) = 0; mean protection from cisplatin (shift in death) (%) = 10.1. Against LOC388420, the entry reads two-siRNA summed score (-2 to +2) = 0; mean protection from cisplatin (shift in death) (%) = 9.3. After knock-down of ZNF112 the results were two-siRNA summed score (-2 to +2) = 0; mean protection from cisplatin (shift in death) (%) = 0.7. Knock-down of SMARCA1 came out at: two-siRNA summed score (-2 to +2) = 1; mean protection from cisplatin (shift in death) (%) = 6.9.

A stretch from the list above:
MIF4GD — two-siRNA summed score (-2 to +2): 1; mean protection from cisplatin (shift in death) (%): 11.5
TIMM22 — two-siRNA summed score (-2 to +2): 0; mean protection from cisplatin (shift in death) (%): 3.1
